Laboratory results: PubChem BioAssay AID504808 (Drosophila RNAi Screening Center, 2011)
The deposit covers about 21,000 reagents; shown is an unselected part of those with a known target gene and a result. Over the whole deposit, 18 (0.084%) were called active. 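Raw counts without plate normalisation, one of two replicates; the ratio scores behind the calls were not deposited.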 Names joined by + are all predicted targets of the reagent. The record does not give: the amount of reagent, the time to read-out.

Purpose: 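Fly genes required to hold E2F transcription in check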 (primary screen)
Cells: Drosophila S2 cells
Reagent: long dsRNA against Drosophila genes
Measurement: 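Dual luciferase plate measurements; E2F-specific signal taken as firefly over Renilla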
Direction: E2F firefly: higher = more E2F reporter activity; Renilla normaliser: higher = more normaliser reporter signal
Hit rule: 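Called active if the normalised E2F reporter went up by over 50%; the cutoff is arbitrary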

For CG9592 [DRSC11078], the values are E2F firefly, rep 1 = 1.61e5; Renilla normaliser, rep 1 = 8147; inactive.
Knock-down of shop (shopper) [DRSC20030] gave: E2F firefly, rep 1 = 1.31e5; Renilla normaliser, rep 1 = 5186; inactive.
After knock-down of CG18735 [DRSC04312] the results were E2F firefly, rep 1 = 90992; Renilla normaliser, rep 1 = 4182; inactive.
After knock-down of karr [DRSC20681], the screen gave E2F firefly, rep 1 = 1.36e5; Renilla normaliser, rep 1 = 6687; inactive.
With knock-down of Eig71Ee (Ecdysone-induced gene 71Ee) [DRSC11152] the results were E2F firefly, rep 1 = 1.73e5; Renilla normaliser, rep 1 = 7047; inactive.
Knock-down of sas (stranded at second) [DRSC12631] gave: E2F firefly, rep 1 = 1.24e5; Renilla normaliser, rep 1 = 5729; inactive.
Against CG40948 (retired record) [DRSC20944], the entry reads E2F firefly, rep 1 = 92884; Renilla normaliser, rep 1 = 2741; inactive.
CG5089 [DRSC06914] showed E2F firefly, rep 1 = 86955; Renilla normaliser, rep 1 = 3961; inactive.
With knock-down of Pka-C2 (Protein kinase, cAMP-dependent, catalytic subunit 2) [DRSC16790], the record shows E2F firefly, rep 1 = 95396; Renilla normaliser, rep 1 = 6290; inactive.
Against Trpml + CG42638 [DRSC11032], the values are E2F firefly, rep 1 = 79184; Renilla normaliser, rep 1 = 3628; inactive.
After knock-down of deltaCOP (Coat Protein (coatomer) delta) [DRSC18760] the results were E2F firefly, rep 1 = 1292; Renilla normaliser, rep 1 = 1076; inactive.
Knock-down of CG15432 [DRSC00447] came out at: E2F firefly, rep 1 = 1.23e5; Renilla normaliser, rep 1 = 5569; inactive.
With knock-down of olf413 [DRSC11543] the results were E2F firefly, rep 1 = 94655; Renilla normaliser, rep 1 = 4449; inactive.
For olf413 [DRSC11679], the entry reads E2F firefly, rep 1 = 1.35e5; Renilla normaliser, rep 1 = 6549; inactive.
olf413 [DRSC11721] scored E2F firefly, rep 1 = 1.28e5; Renilla normaliser, rep 1 = 7340; inactive.
Depletion of olf413 [DRSC11833] resulted in: E2F firefly, rep 1 = 1.35e5; Renilla normaliser, rep 1 = 6599; inactive.
GluRS-m (Glutamyl-tRNA synthetase, mitochondrial) [DRSC10431] gave E2F firefly, rep 1 = 1.68e5; Renilla normaliser, rep 1 = 6914; inactive.
CG17560 [DRSC15242] scored E2F firefly, rep 1 = 1.21e5; Renilla normaliser, rep 1 = 5826; inactive.
sni (sniffer) [DRSC17770] showed E2F firefly, rep 1 = 8050; Renilla normaliser, rep 1 = 896; inactive.
ph-d (polyhomeotic distal) [DRSC18819] showed E2F firefly, rep 1 = 65298; Renilla normaliser, rep 1 = 5199; inactive.
After knock-down of rtp (retinophilin) [DRSC12132] the results were E2F firefly, rep 1 = 79775; Renilla normaliser, rep 1 = 3461; inactive.
After knock-down of Bx (Beadex) [DRSC19350], the screen gave E2F firefly, rep 1 = 91834; Renilla normaliser, rep 1 = 4291; inactive.
CG33775 [DRSC05353] showed E2F firefly, rep 1 = 1.45e5; Renilla normaliser, rep 1 = 5340; inactive.
For spz (spatzle) [DRSC17065], the values are E2F firefly, rep 1 = 2065; Renilla normaliser, rep 1 = 984; inactive.
wda (will decrease acetylation) [DRSC15579] gave E2F firefly, rep 1 = 1.12e5; Renilla normaliser, rep 1 = 6432; inactive.
Against CG1674 [DRSC17142], the values are E2F firefly, rep 1 = 1.35e5; Renilla normaliser, rep 1 = 5905; inactive.
rhea [DRSC11300] gave E2F firefly, rep 1 = 96367; Renilla normaliser, rep 1 = 4270; inactive.
CG9393 [DRSC16486] gave E2F firefly, rep 1 = 80623; Renilla normaliser, rep 1 = 3424; inactive.

Records listed so far whose target name starts with R or r:
rtp (retinophilin) [DRSC12132]: E2F firefly, rep 1 = 79775; Renilla normaliser, rep 1 = 3461; outcome = inactive
rhea [DRSC11300]: E2F firefly, rep 1 = 96367; Renilla normaliser, rep 1 = 4270; outcome = inactive
